The values below come from PMC7288960.

These are yes or no findings as the source states them, for the method shown. Binding seen in cells or lysates may run through a third protein. Some binding calls cover weakened binding; strength is not graded here. Tags and fused reporters may be left off the sequences shown.

This test addresses T1, GSG2-Flag (Haploid germ cell-specific nuclear protein kinase, Haspin) (UniProt Q8TF76).
T1 sequence: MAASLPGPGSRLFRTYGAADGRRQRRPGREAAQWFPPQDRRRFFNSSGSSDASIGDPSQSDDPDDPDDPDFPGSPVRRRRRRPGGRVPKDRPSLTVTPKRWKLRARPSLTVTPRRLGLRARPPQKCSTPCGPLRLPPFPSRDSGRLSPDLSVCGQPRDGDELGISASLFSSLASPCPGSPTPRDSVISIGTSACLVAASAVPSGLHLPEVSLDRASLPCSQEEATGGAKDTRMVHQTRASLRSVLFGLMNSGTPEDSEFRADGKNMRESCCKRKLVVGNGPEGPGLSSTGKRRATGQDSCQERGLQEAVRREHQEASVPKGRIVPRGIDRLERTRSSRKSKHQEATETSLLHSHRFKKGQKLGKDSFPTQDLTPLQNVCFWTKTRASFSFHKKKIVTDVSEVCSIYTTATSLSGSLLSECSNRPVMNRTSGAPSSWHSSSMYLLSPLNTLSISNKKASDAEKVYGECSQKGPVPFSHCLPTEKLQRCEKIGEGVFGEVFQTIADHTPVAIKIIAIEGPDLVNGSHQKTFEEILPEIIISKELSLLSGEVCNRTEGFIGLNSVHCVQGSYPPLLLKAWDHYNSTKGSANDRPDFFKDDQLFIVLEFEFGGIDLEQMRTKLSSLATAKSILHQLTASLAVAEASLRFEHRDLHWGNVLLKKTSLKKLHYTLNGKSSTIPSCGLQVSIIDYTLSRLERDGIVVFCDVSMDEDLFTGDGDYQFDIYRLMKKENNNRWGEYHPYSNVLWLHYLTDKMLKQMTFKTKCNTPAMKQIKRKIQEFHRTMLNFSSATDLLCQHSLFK
Nature of the test: co-IP; whole cell lysate of T24 cells with or without GSG2-Flag overexpression; precipitated by anti-Flag or anti-KIF15; immunocomplex detected with anti-Flag, anti-GSG2 and anti-KIF15.

B1: KIF15 (kinesin-12) (protein, UniProt Q9NS87 1-1388)
chain: MAPGCKTELRSVTNGQSNQPSNEGDAIKVFVRIRPPAERSGSADGEQNLCLSVLSSTSLRLHSNPEPKTFTFDHVADVDTTQESVFATVAKSIVESCMSGYNGTIFAYGQTGSGKTFTMMGPSESDNFSHNLRGVIPRSFEYLFSLIDREKEKAGAGKSFLCKCSFIEIYNEQIYDLLDSASAGLYLREHIKKGVFVVGAVEQVVTSAAEAYQVLSGGWRNRRVASTSMNRESSRSHAVFTITIESMEKSNEIVNIRTSLLNLVDLAGSERQKDTHAEGMRLKEAGNINRSLSCLGQVITALVDVGNGKQRHVCYRDSKLTFLLRDSLGGNAKTAIIANVHPGSRCFGETLSTLNFAQRAKLIKNKAVVNEDTQGNVSQLQAEVKRLKEQLAELASGQTPPESFLTRDKKKTNYMEYFQEAMLFFKKSEQEKKSLIEKVTQLEDLTLKKEKFIQSNKMIVKFREDQIIRLEKLHKESRGGFLPEEQDRLLSELRNEIQTLREQIEHHPRVAKYAMENHSLREENRRLRLLEPVKRAQEMDAQTIAKLEKAFSEISGMEKSDKNQQGFSPKAQKEPCLFANTEKLKAQLLQIQTELNNSKQEYEEFKELTRKRQLELESELQSLQKANLNLENLLEATKACKRQEVSQLNKIHAETLKIITTPTKAYQLHSRPVPKLSPEMGSFGSLYTQNSSILDNDILNEPVPPEMNEQAFEAISEELRTVQEQMSALQAKLDEEEHKNLKLQQHVDKLEHHSTQMQELFSSERIDWTKQQEELLSQLNVLEKQLQETQTKNDFLKSEVHDLRVVLHSADKELSSVKLEYSSFKTNQEKEFNKLSERHMHVQLQLDNLRLENEKLLESKACLQDSYDNLQEIMKFEIDQLSRNLQNFKKENETLKSDLNNLMELLEAEKERNNKLSLQFEEDKENSSKEILKVLEAVRQEKQKETAKCEQQMAKVQKLEESLLATEKVISSLEKSRDSDKKVVADLMNQIQELRTSVCEKTETIDTLKQELKDINCKYNSALVDREESRVLIKKQEVDILDLKETLRLRILSEDIERDMLCEDLAHATEQLNMLTEASKKHSGLLQSAQEELTKKEALIQELQHKLNQKKEEVEQKKNEYNFKMRQLEHVMDSAAEDPQSPKTPPHFQTHLAKLLETQEQEIEDGRASKTSLEHLVTKLNEDREVKNAEILRMKEQLREMENLRLESQQLIEKNWLLQGQLDDIKRQKENSDQNHPDNQQLKNEQEESIKERLAKSKIVEEMLKMKADLEEVQSALYNKEMECLRMTDEVERTQTLESKAFQEKEQLRSKLEEMYEERERTSQEMEMLRKQVECLAEENGKLVGHQNLHQKIQYVVRLKKENVRLAEETEKLRAENVFLKEKKRSES
In the case of B1, the binding entry is reported as “binds”.
